Values quoted from earlier work as cited in patent US20090215738A1, “PREVENTION AND TREATMENT OF AN INCREASE IN CARDIOVASCULAR RISK, ADVERSE CARDIOVASCULAR EVENTS, INFERTILITY, AND ADVERSE PSYCHOLOGICAL EFFECTS AFTER ANDROGEN OR GNRH ANALOGUE INTAKE” (priority 2008, published 2009).
At least one structure is not confirmed: it was looked up by name or label, or the drawing left a doubt.

Test system: LH secretion
Details: estradiol compared with testosterone

C[C@]12CC[C@@H]3c4ccc(O)cc4CC[C@H]3[C@@H]1CC[C@@H]2O [Estradiol, estradiol]
effectiveness in suppressing LH secretion relative to testosterone: 200 fold
